PubChem BioAssay AID1224826, NIAID | 2016

Screen: 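Knock-downs that raise or lower Tnf reporter signal after endotoxin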 (primary screen)
System: RAW264.7 G9 macrophages from mouse bearing reporters for p65 (GFP) and the Tnf promoter (mCherry)
Knock-down reagent: siRNA pool against mouse genes, 100 nM
Timing: 16 h of LPS stimulation, after 2 days of siRNA transfection
Challenge: bacterial lipopolysaccharide (Salmonella minnesota R595), 10 ng/ml
Detection: 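Imaged Tnf reporter mCherry in nuclei, minus background, normalised per plate to the median and expressed as robust z-scores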
Reading the numbers: Tnf reporter robust z-score: higher = stronger Tnf promoter reporter signal after LPS
Call rule: 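a well counts as active at a score of -1.3 or below (Tlr4 knock-down control median) or above 3 (raised signal); controls and wells holding fewer than 50 cells are excluded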
Calls: active = Tnf reporter clearly lowered or raised; inactive = no clear change in Tnf reporter
In all, the deposit lists about 17,000 reagents; shown is a random part of them. About 1,110 of all reagents (6.6%) were called active. 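Active means lowered or raised reporter signal; replicate intensities are raw and not normalised per plate.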 Unmarked entries are inactive. Not all columns of the deposit are shown. No sequences are given here.

{"gene": "Rapgef6 (Rap guanine nucleotide exchange factor (GEF) 6)", "PubChem SID": "SID315477426", "Tnf reporter robust z-score": 2.31, "fewer than 50 cells in well": "enough cells in well"}
{"gene": "Hbb-b1 (hemoglobin, beta adult major chain)", "PubChem SID": "SID315467150", "Tnf reporter robust z-score": 1.71, "fewer than 50 cells in well": "enough cells in well"}
{"gene": "Magohb (mago homolog B, exon junction complex core component)", "PubChem SID": "SID315472445", "fewer than 50 cells in well": "fewer than 50 cells per well; well left out of calls"}
{"gene": "Cul3 (cullin 3)", "PubChem SID": "SID315470434", "Tnf reporter robust z-score": -0.89, "fewer than 50 cells in well": "enough cells in well"}
{"gene": "Itsn1 (intersectin 1 (SH3 domain protein 1A))", "PubChem SID": "SID315467540", "Tnf reporter robust z-score": 1.6, "fewer than 50 cells in well": "enough cells in well"}
{"gene": "Sod3 (superoxide dismutase 3, extracellular)", "PubChem SID": "SID315469375", "Tnf reporter robust z-score": 0.19, "fewer than 50 cells in well": "enough cells in well"}
{"gene": "Hdac9 (histone deacetylase 9)", "PubChem SID": "SID315475667", "Tnf reporter robust z-score": -0.42, "fewer than 50 cells in well": "enough cells in well"}
{"gene": "Hdac9 (histone deacetylase 9)", "PubChem SID": "SID315475668", "Tnf reporter robust z-score": -0.69, "fewer than 50 cells in well": "enough cells in well"}
{"gene": "Plscr3 (phospholipid scramblase 3)", "PubChem SID": "SID315474008", "Tnf reporter robust z-score": -0.04, "fewer than 50 cells in well": "enough cells in well"}
{"gene": "Map3k13 (mitogen-activated protein kinase kinase kinase 13)", "PubChem SID": "SID315474307", "Tnf reporter robust z-score": -1.19, "fewer than 50 cells in well": "enough cells in well"}
{"gene": "Letm2 (leucine zipper-EF-hand containing transmembrane protein 2)", "PubChem SID": "SID315480908", "Tnf reporter robust z-score": 0.06, "fewer than 50 cells in well": "enough cells in well"}
{"gene": "Ilf3 (interleukin enhancer binding factor 3)", "PubChem SID": "SID315467467", "Tnf reporter robust z-score": -0.08, "fewer than 50 cells in well": "enough cells in well"}

Targets above whose gene name begins with M or m (2):
{"gene": "Magohb (mago homolog B, exon junction complex core component)", "PubChem SID": "SID315472445", "fewer than 50 cells in well": "fewer than 50 cells per well; well left out of calls"}
{"gene": "Map3k13 (mitogen-activated protein kinase kinase kinase 13)", "PubChem SID": "SID315474307", "Tnf reporter robust z-score": -1.19, "fewer than 50 cells in well": "enough cells in well"}
